Assay results from US11654169B2, “Methods for protecting skin and/or promoting wound healing” (SINPHAR PHARMACEUTICAL CO., LTD., priority 2016, dated 2023).
For at least one compound, name, drawing or mass did not settle the structure.

Tests used:
Format in all cases: cell-based
[1] = tested on: normal primary human skin fibroblastic cells; test: Content of collagen in cell medium (extracellular collagen) of fibroblasts (Western blot and ELISA), relative to control; conditions: treated cells vs control group, 48 hours
Method: The normal primary human skin fibroblastic cells (purchased from ATCC) were cultivated in a Fibroblast Growth Medium. The cells thus provided were used in the following experiments.
The normal primary human skin fibroblastic cells provided by [Preparation Example C] were divided into 4 groups and were respectively cultivated with the following medium for 48 hours: • 1. Group I: a Fibroblast Growth Medium; • 2.
(§1) Thereafter, the cell medium of each group was collected and concentrated. Then, the intracellular content of collagen, the content of collagen in cell medium (i.e., extracellular content of collagen) and the content of hyaluronic acid in cell medium were measured and analyzed by Western blot and enzyme-linked immunosorbent assay (ELISA).
(§2) The normal primary human skin fibroblastic cells provided by [Preparation Example C] were divided into 37 groups and were respectively cultivated with the following medium for 48 hours: • 1. Group 1: a Fibroblast Growth Medium • 2. Group 2-1 to 2-3: Fibroblast Growth Media containing the pachymic acid (PA) provided by [Preparation Example B] at a concentration of 0.01, 0.1 and 1 μM, respectively; • 3. Group 3-1 to 3-3: Fibroblast Growth Media containing the dehydropachymic acid (DPA) provided by [Preparation Example B] at a concentration of 0.01, 0.1 and 1 μM, respectively; • 4. […]

[2] = tested on: normal primary human skin fibroblastic cells; test: Content of hyaluronic acid in cell medium of fibroblasts (Western blot and ELISA), relative to control; conditions: treated cells vs control group, 48 hours; for contents of hyaluronic acid, ingredients singled out as stronger (in words): compared with the other active ingredients
Method: (§3) The normal primary human skin fibroblastic cells (purchased from ATCC) were cultivated in a Fibroblast Growth Medium. The cells thus provided were used in the following experiments. […]
as §1
The normal primary human skin fibroblastic cells provided by [Preparation Example C] were divided into 37 groups and were respectively cultivated with the following medium for 48 hours: • 1. Group 1: a Fibroblast Growth Medium • 2. Group 2-1 to 2-3: Fibroblast Growth Media containing the pachymic acid (PA) provided by [Preparation Example B] at a concentration of 0.01, 0.1 and 1 μM, respectively; • 3. Group 3-1 to 3-3: Fibroblast Growth Media containing the dehydropachymic acid (DPA) provided by [Preparation Example B] at a concentration of 0.01, 0.1 and 1 μM, respectively; • 4. Group 4-1 to 4-3: Fibroblast Growth Media containing the tumulosic acid (TA) provided by [Preparation Example B] at a concentration of 0.01, 0.1 and 1 μM, respectively; • 5. Group 5-1 to 5-3: Fibroblast Growth Media containing the dehydrotumulosic acid (DTA) provided by [Preparation Example B] at a concentration of 0.01, 0.1 and 1 μM, respectively; • 6. Group 6-1 to 6-3: Fibroblast Growth Media containing the polyporenic acid C (PAC) provided by [Preparation Example B] at a concentration of 0.01, 0.1 and 1 μM, respectively; • 7. Group 7-1 to 7-3: Fibroblast Growth Media containing the 3-epi-dehydrotumulosic acid (EDTA) provided by [Preparation Example B] at a concentration of 0.01, 0.1 and 1 μM, respectively; • 8. Group 8-1 to 8-3: Fibroblast Growth Media containing the dehydrotrametenolic acid (DTTA) provided by [Preparation Example B] at a concentration of 0.01, 0.1 and 1 μM, respectively; • 9. Group 9-1 to 9-3: Fibroblast Growth Media containing the trametenolic acid (TTA) provided by [Preparation Example B] at a concentration of 0.01, 0.1 and 1 μM, respectively; • 10. Group 10-1 to 10-3: Fibroblast Growth Media containing the poricoic acid A (PAA) provided by [Preparation Example B] at a concentration of 0.01, 0.1 and 1 μM, respectively; • 11. Group 11-1 to 11-3: Fibroblast Growth Media containing the dehydroeburicoic acid (DEA) provided by [Preparation Example B] at a concentration of 0.01, 0.1 and 1 μM, respectively; • 12. Group 12-1 to 12-3: Fibroblast Growth Media containing the poricoic acid B (PAB) provided by [Preparation Example B] at a concentration of 0.01, 0.1 and 1 μM, respectively; • 13. […]

[3] = tested on: normal primary human skin fibroblastic cells; test: Intracellular content of collagen in fibroblasts (Western blot and ELISA), relative to control; conditions: treated cells vs control group, 48 hours
Method: as §3
as §2, with “4. Group 4-1 to 4-3: Fibroblast Growth Media containing the tumulosic acid (TA) provided by [Preparation Example B] at a concentration of 0.01, 0.1 and 1 μM, respectively; • 5. Group 5-1 to 5-3: Fibroblast Growth Media containing the dehydrotumulosic acid (DTA) provided by [Preparation Example B] at a concentration of 0.01, 0.1 and 1 μM, respectively; • 6.” for “4.”
Thereafter, the cell medium of each group was collected and concentrated. Then, the intracellular content of collagen was measured and analyzed by Western blot and enzyme-linked immunosorbent assay (ELISA).

| Compound | extracellular contents of collagen (collagen in cell medium) as compared to the control group (in words) [1] | contents of hyaluronic acid as compared to the control group (in words) [2] | contents of hyaluronic acid, ingredients singled out as stronger (in words) [2] | intracellular contents of collagen as compared to the control group (in words) [3] |
| --- | --- | --- | --- | --- |
| C=C(CC[C@@H](C(=O)O)[C@H]1[C@H](O)C[C@@]2(C)C3=C(CC[C@]12C)[C@@]1(C)CC[C@H](OC(C)=O)C(C)(C)[C@@H]1CC3)C(C)C [Pachymic acid (PA), pachymic acid] | significantly enhanced | significantly enhanced | enhanced more significantly | significantly enhanced |
| C=C(CC[C@@H](C(=O)O)[C@H]1[C@H](O)C[C@@]2(C)C3=C(CC[C@]12C)[C@@]1(C)CC[C@H](O)C(C)(C)[C@@H]1CC3)C(C)C [Tumulosic acid (TA), tumulosic acid] | significantly enhanced | significantly enhanced | enhanced more significantly | significantly enhanced |
